According to patent US20220003782A1 (METAFORA BIOSYSTEMS, published 2022):
Results are given in words; binding and its absence hold for the method and conditions named. Some results given as binding are weak or reduced against the parent protein; the word gives no strength. Sequences can lack the tags named with a protein.

Target: T1, sodium-dependent multivitamin transporter / solute carrier family 5 member 6 (SMVT/SLC5A6) (human) (UniProt Q9Y289)
T1 sequence: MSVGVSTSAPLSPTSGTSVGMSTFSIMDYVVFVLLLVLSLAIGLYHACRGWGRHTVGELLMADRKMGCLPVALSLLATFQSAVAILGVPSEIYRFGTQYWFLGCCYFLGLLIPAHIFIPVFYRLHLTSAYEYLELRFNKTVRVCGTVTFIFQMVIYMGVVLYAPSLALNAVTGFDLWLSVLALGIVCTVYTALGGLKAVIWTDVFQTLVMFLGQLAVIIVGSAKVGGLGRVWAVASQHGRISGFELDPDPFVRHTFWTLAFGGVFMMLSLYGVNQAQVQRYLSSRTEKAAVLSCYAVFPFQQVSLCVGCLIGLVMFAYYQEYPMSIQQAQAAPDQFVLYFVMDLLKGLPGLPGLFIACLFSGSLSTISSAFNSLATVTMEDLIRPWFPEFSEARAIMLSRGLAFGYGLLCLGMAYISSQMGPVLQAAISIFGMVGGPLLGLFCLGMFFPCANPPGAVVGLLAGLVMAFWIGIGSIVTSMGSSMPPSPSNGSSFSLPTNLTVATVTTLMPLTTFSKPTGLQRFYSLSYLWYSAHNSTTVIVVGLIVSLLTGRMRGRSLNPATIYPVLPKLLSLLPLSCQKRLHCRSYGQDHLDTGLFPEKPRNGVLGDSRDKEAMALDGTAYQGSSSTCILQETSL
Assay: flow cytometry on HEK 293T cells with SMVT overexpression or siRNA knockdown

B1: PERV-B RBD ligand fused to a mouse Fc fragment (SEQ ID NO: 13) (Fc fusion)
chain: KRLIDSSNPHRPLSLTWLIIDPDTGVTVNSTRGVAPRGTWWPELHFCLRLINPAVKSTPPNLVRSYGFYCCPGTEKEKYCGGSEESFCRRWSCVTSNDGDWKWPISLQDRVKFSFVNSGPGKYKVMKLYKDKSCSPSDLDYLKISFTEKGKQENIQKWINGMSWGIVFYKYGGGAGSTLTIRLRIEAGTEPPVAVGSVDVPRDCGCKPCICTVPEVSSVFIFPPKPKDVLTITLTPKVTCVVVDISKDDPEVQFSWFVDDVEVHTAQTQPREEQFNSTFRSVSELPIMHQDWLNGKEFKCRVNSAAFPAPIEKTISKTKGRPKAPQVYTIPPPKEQMAKDKVSLTCMITDFFPEDITVEWQWNGQPAENYKNTQPIMDTDGSYFVYSKLNVQKSNWEAGNTFTCSVLHEGLHNHHTEKSLSHSPGK
binding: binds
